The test can be described thus: qHTS Assay for Modulators of Lamin A Splicing. The note with it: HeLa LMNA splicing GFP/RFP minigene ratio, 48 h. Put shortly: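 S3 HeLa stable clones carrying a lamin A-EGFP splicing minigene plus DsRed2 were seeded at 600 cells/well in Opti-MEM with 2% FBS, pin-dosed and incubated 48 h at 37°C. Acumen cytometry (488 nm) gave the GFP/RFP total-intensity ratio.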
The mark [1] stands for this setting: measured here: GFP splicing reporter channel.
The mark [2] stands for this setting: measured here: RFP viability control channel.

The other results are listed elsewhere or left out. These are further read-outs of the screen, such as a control signal, another cell line or another target. No call is given for them. Compounds called inactive in the main read-out are mostly missing here. The note in brackets gives the kind of curve behind each potency; many fits are weak.

`Cc1cccc(NCc2ccc(O)c3ncccc23)c1`: under setting [1], the AC50 was 2.82 µM [falling, single point]. Turning to `O=C(CSc1n[nH]c(-c2ccccc2Cl)n1)NCc1ccc(F)cc1`, the AC50 runs as follows: under setting [1], 0.794 µM [rising, full curve, poor fit]; under setting [2], 0.708 µM [rising, full curve, poor fit]. Consider `CNCC[C@H](Oc1ccccc1OC)c1ccccc1`, for which the AC50 under setting [2] is 0.000794 µM [falling, full curve, poor fit]. On the same count and under the same terms, in the case of `COc1nn(-c2nc(-c3ccccc3)cc(C(F)(F)F)n2)cc1[N+](=O)[O-]` it was 35.5 µM [falling, single point]. The same measure, in the same setting: in the case of `Cc1cc(SCC(=O)N/N=C/c2ccc(O)c(O)c2O)c(C)cc1Br` it was 31.6 µM [rising, single point]. For the molecule `Cc1c(Cl)cccc1NS(=O)(=O)c1ccc(-c2cnc(C3CC3)o2)cc1`, the half-maximal activity concentration (AC50) runs as follows: under setting [1], 0.355 µM [rising, full curve]; under setting [2], 0.251 µM [rising, full curve].

For the molecule `COCc1cc(C)nc(SCC(=O)Oc2ccc(Cl)cc2)c1C#N`, under setting [1], the AC50 is 0.112 µM [falling, full curve, poor fit]. As to `CC(C)Cc1csc(NC(=O)c2ccc(Cl)cc2)c1C(=O)O`, the AC50 reads like this: under setting [1], 10 µM [rising, partial curve, poor fit]; under setting [2], 14.1 µM [rising, partial curve, poor fit]. As for `CCC(=O)N1c2ccccc2CC1C(=O)NCc1cc(OC)ccc1OC` (configuration not stated), the AC50 under setting [2] was 0.501 µM [rising, full curve, poor fit]. `CCCCC1=CC2=CC(=O)C(C)(OC(=O)CC)C(=O)C2=CN1Cc1ccccc1` (configuration not stated): the AC50 under setting [1] is 0.00112 µM [rising, full curve, poor fit].

As to `N/C(=N\OC(=O)N1c2ccccc2Sc2ccccc21)c1ccccc1`, the AC50 under setting [2] is 0.141 µM [rising, full curve, poor fit]. Take `CC(C)(C)c1nc2ccccc2c2nnc(SCC(=O)Nc3nc4ccccc4s3)n12`: the AC50 was 28.2 µM [falling, single point] under setting [1] and 35.5 µM [falling, single point] under setting [2]. As for `CC(C)c1ccc(NC(=O)c2cc(S(=O)(=O)N(C)C3CCCCC3)ccc2F)cc1`, the AC50 under setting [2] is 15.8 µM [rising, single point]. Turning to `C[C@@H](NC(=O)/C(C#N)=C/c1ccc(O)c(O)c1)c1ccccc1`, the AC50 under setting [1] was 11.2 µM [falling, partial curve]. On to `CCOc1ccc(NC(=O)c2cc(S(=O)(=O)N3CCc4ccccc43)ccc2F)cc1`, for which the AC50 is, setting by setting: under setting [1], 28.2 µM [falling, partial curve]; under setting [2], 25.1 µM [falling, partial curve]. Regarding `COc1ccc(-c2c(C)c3ccc(OCC(C)=O)cc3oc2=O)cc1`, the AC50 under setting [1] is 14.1 µM [falling, single point]. For the molecule `CCCCOc1ccc(CSCCNC(=S)Nc2ccccc2)cc1`, under setting [2], the AC50 is 35.5 µM [rising, single point]. Same read-out and setting: in the case of `Cc1ccc(OCC(=O)Nc2ccc(S(=O)(=O)Nc3ccccn3)cc2)cc1` it was 0.891 µM [falling, full curve, poor fit]; in that of `O=[N+]([O-])c1cc(Cc2ccccc2)cc(C=Nc2ccc(N3CCOCC3)cc2)c1O`, 14.1 µM [rising, partial curve]; in that of `CCN(CC)S(=O)(=O)c1cccc(C(=O)N/N=C/c2cccc(O)c2O)c1`, 14.1 µM [rising, partial curve]. For `Cc1ccc(-n2cc(C(=O)Oc3ccc(F)cc3)c3ccccc3c2=O)cc1`, the AC50 under setting [1] is 0.794 µM [rising, full curve, poor fit] and the concentration at half-maximal activity (AC50) under setting [2] was 35.5 µM [rising, partial curve, poor fit]. With `Cc1c(NC(=O)c2ccc(=O)oc2)c(=O)n(-c2ccccc2)n1C`, the concentration at half-maximal activity (AC50) runs as follows: under setting [1], 35.5 µM [falling, single point]; under setting [2], 25.1 µM [falling, partial curve]. Consider `COC(=O)[C@H]1C[C@@H]1[C@H](NC(=O)[C@H]1C[C@@H]1[C@H](NC(=O)OCc1ccccc1)c1ccccc1)c1ccccc1`, for which the AC50 under setting [2] is 20 µM [falling, partial curve, poor fit].

Consider `O=C(CCl)Nc1ccccc1C(=O)NCc1ccccc1`, for which the AC50 is, setting by setting: under setting [1], 14.1 µM [falling, partial curve, poor fit]; under setting [2], 0.00794 µM [falling, full curve, poor fit]. Regarding `O=C(CSc1nc2ccccc2[nH]1)Nc1cc(C(F)(F)F)ccc1N1CCOCC1`, under setting [1], the AC50 was 20 µM [rising, partial curve, poor fit]. Take `O=C(NCCCn1ccnc1)c1cccc(S(=O)(=O)N2CCCCCC2)c1`: the AC50 under setting [2] is 15.8 µM [rising, single point].

Take `COc1cccc(NC(=O)/C=C/c2ccco2)c1`: the AC50 under setting [2] was 8.91 µM [rising, partial curve]. `Cc1cc(NC(=O)C2CCCN2C(=O)Nc2cccc(Cl)c2)ccc1-n1cnnn1` (configuration not stated): the concentration at half-maximal activity (AC50) is 2.82 µM [rising, partial curve] under setting [1] and 5.62 µM [rising, partial curve, poor fit] under setting [2]. Take `Cc1ccc(C)c(Oc2ncnc(N)c2[N+](=O)[O-])c1`: under setting [2], the AC50 is 3.55 µM [rising, partial curve].

As for `COc1ccccc1N(C)S(=O)(=O)c1ccc(C(=O)NCc2ccc3c(c2)OCO3)cc1`, the AC50 under setting [2] is 17.8 µM [rising, single point]. For `Cc1ccc(CNC(=O)Nc2cc(C(=O)NCc3ccc(C(C)C)cc3)ccc2N2CCCC2)cc1`, the AC50 under setting [1] was 0.01 µM [rising, full curve, poor fit]. With `CC(C)(C)OC(=O)N1CCC(c2c(C(=O)NCCN3CCc4ccccc4C3)cnn2-c2ccc(F)cc2)CC1`, the AC50 was 5.62 µM [falling, partial curve, poor fit] under setting [1] and 0.112 µM [falling, full curve] under setting [2]. Regarding `Cc1ccc(CN(c2ccc(C(=O)N3CCc4ccccc4C3)cc2)S(C)(=O)=O)cc1`, the AC50 under setting [2] is 12.6 µM [rising, single point]. Consider `CCCc1nn(-c2cc(Cl)ccc2OC)c2c1C(=O)CC(C)(C)C2`, for which the AC50 under setting [1] was 25.1 µM [rising, single point] and the AC50 under setting [2] was 14.1 µM [rising, single point]. With `CCSc1nnc(NC(=O)CSc2nc3c(c(=O)n2C)SC(C)C3)s1` (configuration not stated), the concentration at half-maximal activity (AC50) reads like this: under setting [1], 10 µM [rising, partial curve]; under setting [2], 10 µM [rising, partial curve].

In general, AC50 refers to the concentration giving half of the maximal activity seen.

The values are drawn from PubChem BioAssay AID1487 (National Center for Advancing Translational Sciences (NCATS), 2009).
